In publication PMC10163288:
The other results are listed elsewhere or left out.

B1: il2ra_site1_2b5i_normal_mot_HHH_b1_00983_000000007_0001_1_17_H_._HHH_b2_03390_0001_0000100008_0000001_0_af2pred_dldesign_0_af2pred (protein)
chain: SSSSDPYDEVEELYKEALRLYRAGKKEEAKKLLEKALELAEKAGDKVAVADLKYFLSLVKSSSSS
B2: il2ra_site1_2b5i_normal_mot_ems_3hM_3687_af2_000000248_0001_45_64_H_._HHH_b2_01457_af2_0001_0000200017_0000001_0_af2pred_dldesign_0_af2pred (protein)
chain: SSSSSPLDERVEAALARARELKEQGKIREALELLEKLHKELSELGLEDLEDRVYELASELSSSSS
B3: il2ra_site2_2erj_sap_17_mot_HHH_b1_00941_000000060_0001_45_58_H_._HHH_b2_05377_0001_0000700053_0000001_0_0001 (protein)
chain: SSSSTEEYHEVYRIVLELLREFNLSREDAAKLSELAEELLKRGVSLEEIEELLEEQAHRLSSSSS
B4: il2ra_site1_3nfp_sap_15_mot_16934e337390fad51c35c10e6cd388ee_0001_1_000000171_0001_52_65_H_._HHH_b2_07272_af2_0001_0000200009_0000001_0_0001_af2pred_0001_af2pre … (protein)
chain: SSSSSDNEVSRRIDELLKEALKIEDEEEVRRLLEEAQELAEEANSPIAERLVELYERQILSSSSS
B5: il2ra_site1_3nfp_sap_12_mot_HHH_b1_02434_000000128_0001_1_17_H_._HHH_b2_01122_0001_0000400019_0000001_1_0001_af2pred_0001_af2pred_1 (protein)
chain: SSSSDTTKEISEISREIIKLLHEGDEEEARRLIEELRELAEERNDETAKLFVERLKRRVNSSSSS
B6: il2ra_site1_1z92_normal_mot_43152d1d296b358565056a4a32fd9b81_0001_1_000000297_0001_52_65_H_._HEEHE_0134_0001_0000200031_0000001_0_af2pred_dldesign_0_af2pred (protein)
chain: SEEEVITEAIRYIAERVGVPRVEVKIENGKVTVTFHGDPERCAAAAKLITRLLDAAGIEAEVVVR
B7: il2ra_site1_1z92_sap_13_mot_HHH_b1_01765_000000215_0001_19_35_H_._HHH_b2_01532_0001_0000100002_0000001_0_0001_af2pred_0001_af2pred (protein)
chain: SSSSSSDFHEILELFEKAEKIKDKEEVKEILEEALKLAEEAGDEVTAELIEQMLERLKSSSSSSS
B8: il2ra_site2_2erj_normal_mot_HHH_b2_00593_000000044_0001_44_57_H_._HHH_b2_04281_af2_0001_0000300021_0000001_0 (protein)
chain: SSSSDFVREVFELLQELSRLVQEGDEEEVRRVAEEVRRLAEEAKSPNLEESVEYLERLLLSSSSS
B9: il2ra_site1_3nfp_sap_14_mot_119b7766384adbe86006a62bce89dba1_0001_af2_000000052_0001_18_32_H_._HHH_b2_00597_0001_0000100003_0000001_0_0001_af2pred_0001_af2pred_ … (protein)
chain: SSSSDEEEHRKVEEILEEAKHIEDPKEADEVLKEALRLAREINDPEAIRLVEEVLRRLAKSSSSS
B10: il2ra_site2_3nfp_normal_mot_HHH_b1_04862_af2_000000143_0001_39_56_H_._HHH_b2_01567_af2_0001_0000900042_0000001_1 (protein)
chain: SSSSDEEARELLEEAEELLKDERLAEEAHEILMRAAAIAFQEGNFELFAEITELLEEVVQSSSSS
B11: il2ra_site1_2b5i_sap_10_mot_HHH_b2_04463_000000268_0001_43_57_H_._HHH_b2_06355_af2_0001_0000200025_0000001_0_0001 (protein)
chain: SDEEALKMAIEDVSKFARIKEFEIETHNGKITVEVRGDDNAAKAAVRMIEQLARIAGIDLEVEVE
B12: il2ra_site1_3nfp_sap_13_mot_0eddeacbb14b769e73e254714f31e2f9_0001_af2_000000052_0001_37_51_H_._3685a7fc0315cffcf770f862f50b42b9_0001_1_0001_0000400028_0000001_0 … (protein)
chain: SDLEEEVRELIELIKEFAEERNSPVAKLYAELLEEAARRAEERNDERSLRYVLRSARLALRSGSS
B13: il2ra_site2_3nfp_normal_mot_HHH_b1_07543_000000150_0001_38_55_H_._HHH_b2_03463_0001_0000300019_0000001_0 (protein)
chain: SSSSSHQEEYLRAALLLAREAIERGDEEFARRLLKLVIKAAEDLGDEEVLEEAQRLLEEISSSSS
B14: il2ra_site2_2erj_sap_33_mot_3b06bd03f1c6bceadc68eab912867b79_0001_000000296_0001_36_50_H_._HHH_b1_00097_af2_0002_0000100006_0000001_0_0001 (protein)
chain: SSSSDEELEQVVEELVKEFNLDEYAKSFLERLLEALEEDGVSEEEIKKALKAAAEIVAKVSSSSS
B15: il2ra_site1_2b5i_sap_13_mot_HHH_b2_02828_af2_000000092_0001_43_56_H_._HHH_b1_04425_af2_0001_0000300015_0000001_0_0001_af2pred_dldesign_0_af2pred (protein)
chain: SSSSDPYDEVYDLASEALRLYKAGKKEEAKKLLEKALELAKKAKDEKLIKELEYLLSLVESSSSS
B16: il2ra_site2_3nfp_normal_mot_HHH_b1_01086_000000225_0001_20_36_H_._HHH_b1_01202_0001_0000200004_0000001_1_af2pred_0001_af2pred_swapped (protein)
chain: SSSSDHEKFALRLLLLEIEVAIEAGDEEKVKRLIELLRRAIERLNDEEMEEELERLERELSSSSS
B17: il2ra_site2_2erj_sap_25_mot_1d6b5438aa0d917bea2962dcb63062e6_0001_1_af2_000000236_0001_39_63_H_._HHH_b2_01936_0001_0000700043_0000001_0_0001_af2pred_0001_1_af2p … (protein)
chain: SSSSSDEEETQERVEELLERAKRIPDLREALKLLEEAAELAAKNDDPELVELVLEEARKHSSSSS
B18: il2ra_site2_2erj_sap_17_mot_HHH_b1_04154_000000022_0001_1_15_H_._HHH_b1_03521_0001_0000100001_0000001_0_0001 (protein)
chain: SSSSSDLHELYRLLNELSHALANGDEELFEKLAEEVRELAEKLQSDNVEEMIRNMEKILHSSSSS

Target: il2ra, P01589
Assay: yeast display titration

Apparent Kd, inactive:
B1 no binding seen
B2 no binding seen
B3 no binding seen
B4 no binding seen
B5 no binding seen
B6 no binding seen
B7 no binding seen
B8 no binding seen
B9 no binding seen
B10 no binding seen
B11 no binding seen
B12 no binding seen
B13 no binding seen
B14 no binding seen
B15 no binding seen
B16 no binding seen
B17 no binding seen
B18 no binding seen

Random excerpt: 2 entries already listed.
Apparent Kd, inactive:
B13 no binding seen
B7 no binding seen
